Data from the supplement of paper PMC10849652.
The other results are listed elsewhere or left out.

Chains of the proteins cited; added tags and fusions are not shown. Lines headed by an entry give the natural chain unless they say otherwise; changes in a name come on top.
UniProt O60829: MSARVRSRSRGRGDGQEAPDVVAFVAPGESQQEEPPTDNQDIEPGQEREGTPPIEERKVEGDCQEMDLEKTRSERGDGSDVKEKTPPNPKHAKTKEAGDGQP
UniProt Q9H6A9: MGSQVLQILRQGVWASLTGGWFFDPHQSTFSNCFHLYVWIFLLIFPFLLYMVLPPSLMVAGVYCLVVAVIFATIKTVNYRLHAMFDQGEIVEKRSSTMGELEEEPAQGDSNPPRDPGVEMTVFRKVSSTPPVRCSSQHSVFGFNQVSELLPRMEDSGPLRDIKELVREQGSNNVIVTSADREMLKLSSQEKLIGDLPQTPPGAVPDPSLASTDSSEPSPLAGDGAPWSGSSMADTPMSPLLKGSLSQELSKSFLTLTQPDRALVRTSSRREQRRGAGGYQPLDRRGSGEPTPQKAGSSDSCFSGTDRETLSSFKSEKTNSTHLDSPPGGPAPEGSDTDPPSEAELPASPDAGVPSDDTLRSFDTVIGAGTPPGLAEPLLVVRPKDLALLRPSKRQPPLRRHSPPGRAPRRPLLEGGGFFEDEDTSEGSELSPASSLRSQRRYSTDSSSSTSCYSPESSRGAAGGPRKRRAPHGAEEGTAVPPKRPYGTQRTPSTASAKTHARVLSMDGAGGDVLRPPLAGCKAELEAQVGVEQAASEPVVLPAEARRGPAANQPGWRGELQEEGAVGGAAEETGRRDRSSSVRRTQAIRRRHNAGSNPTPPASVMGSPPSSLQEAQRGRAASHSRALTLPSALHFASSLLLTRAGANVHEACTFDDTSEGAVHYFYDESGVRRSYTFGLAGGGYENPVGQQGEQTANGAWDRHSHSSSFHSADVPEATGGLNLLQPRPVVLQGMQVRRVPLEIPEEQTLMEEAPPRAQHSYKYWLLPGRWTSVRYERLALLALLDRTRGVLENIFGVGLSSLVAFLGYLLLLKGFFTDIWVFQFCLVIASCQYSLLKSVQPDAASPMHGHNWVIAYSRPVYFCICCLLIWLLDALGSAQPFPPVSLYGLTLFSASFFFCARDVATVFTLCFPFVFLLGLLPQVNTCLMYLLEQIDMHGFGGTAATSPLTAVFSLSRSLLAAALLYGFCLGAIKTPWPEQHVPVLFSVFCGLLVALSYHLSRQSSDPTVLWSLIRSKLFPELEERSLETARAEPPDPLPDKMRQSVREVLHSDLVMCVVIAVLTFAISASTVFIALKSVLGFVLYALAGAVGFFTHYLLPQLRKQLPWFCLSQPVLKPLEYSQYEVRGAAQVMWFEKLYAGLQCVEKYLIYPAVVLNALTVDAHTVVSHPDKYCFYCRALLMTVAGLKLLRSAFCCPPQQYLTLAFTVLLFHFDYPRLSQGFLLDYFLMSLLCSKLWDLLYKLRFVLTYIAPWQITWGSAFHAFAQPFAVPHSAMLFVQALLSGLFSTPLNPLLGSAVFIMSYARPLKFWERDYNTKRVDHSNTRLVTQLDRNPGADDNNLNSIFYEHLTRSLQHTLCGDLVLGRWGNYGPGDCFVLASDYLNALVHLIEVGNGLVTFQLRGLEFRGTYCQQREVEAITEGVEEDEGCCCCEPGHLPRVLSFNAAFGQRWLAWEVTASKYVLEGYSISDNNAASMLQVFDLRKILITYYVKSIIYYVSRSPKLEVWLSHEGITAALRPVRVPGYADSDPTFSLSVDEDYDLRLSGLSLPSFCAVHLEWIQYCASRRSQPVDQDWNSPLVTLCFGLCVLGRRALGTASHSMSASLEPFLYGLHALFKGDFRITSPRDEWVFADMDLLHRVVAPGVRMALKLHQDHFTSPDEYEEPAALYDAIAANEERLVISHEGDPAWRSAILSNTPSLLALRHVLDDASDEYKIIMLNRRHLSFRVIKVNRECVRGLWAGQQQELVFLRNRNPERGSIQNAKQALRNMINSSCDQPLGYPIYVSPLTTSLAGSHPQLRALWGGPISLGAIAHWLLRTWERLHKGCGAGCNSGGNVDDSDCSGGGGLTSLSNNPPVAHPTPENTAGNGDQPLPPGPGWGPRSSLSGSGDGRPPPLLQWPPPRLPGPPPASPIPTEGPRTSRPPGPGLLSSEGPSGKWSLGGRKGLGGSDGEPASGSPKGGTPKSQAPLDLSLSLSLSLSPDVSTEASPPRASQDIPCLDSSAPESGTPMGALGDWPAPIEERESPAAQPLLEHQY
UniProt Q8N7B6: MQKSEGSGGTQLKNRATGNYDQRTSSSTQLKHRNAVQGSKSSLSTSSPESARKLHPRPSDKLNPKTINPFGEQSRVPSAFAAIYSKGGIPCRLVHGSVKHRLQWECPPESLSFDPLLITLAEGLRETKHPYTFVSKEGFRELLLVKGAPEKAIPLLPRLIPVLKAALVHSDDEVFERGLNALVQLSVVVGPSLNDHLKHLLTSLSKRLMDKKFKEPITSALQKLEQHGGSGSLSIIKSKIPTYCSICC
UniProt Q16549: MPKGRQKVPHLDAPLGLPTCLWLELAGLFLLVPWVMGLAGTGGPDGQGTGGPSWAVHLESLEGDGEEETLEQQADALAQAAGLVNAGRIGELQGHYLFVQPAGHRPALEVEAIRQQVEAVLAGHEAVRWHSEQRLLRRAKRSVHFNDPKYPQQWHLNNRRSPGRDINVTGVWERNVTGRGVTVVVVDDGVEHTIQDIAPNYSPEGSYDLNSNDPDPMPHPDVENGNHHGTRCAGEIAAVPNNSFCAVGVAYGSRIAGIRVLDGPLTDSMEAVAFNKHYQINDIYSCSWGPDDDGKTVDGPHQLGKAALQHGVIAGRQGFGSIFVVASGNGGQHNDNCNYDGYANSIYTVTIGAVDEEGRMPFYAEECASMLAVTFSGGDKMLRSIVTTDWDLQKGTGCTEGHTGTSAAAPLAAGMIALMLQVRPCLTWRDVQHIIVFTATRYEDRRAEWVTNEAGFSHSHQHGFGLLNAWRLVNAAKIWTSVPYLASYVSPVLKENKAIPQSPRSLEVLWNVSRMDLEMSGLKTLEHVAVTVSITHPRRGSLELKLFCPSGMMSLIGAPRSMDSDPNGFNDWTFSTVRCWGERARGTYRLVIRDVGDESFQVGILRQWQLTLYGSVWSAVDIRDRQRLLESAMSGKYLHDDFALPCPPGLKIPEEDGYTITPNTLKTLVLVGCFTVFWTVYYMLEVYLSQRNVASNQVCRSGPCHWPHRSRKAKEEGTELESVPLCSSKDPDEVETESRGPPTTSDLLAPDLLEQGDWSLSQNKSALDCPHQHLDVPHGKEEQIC
UniProt Q58A45: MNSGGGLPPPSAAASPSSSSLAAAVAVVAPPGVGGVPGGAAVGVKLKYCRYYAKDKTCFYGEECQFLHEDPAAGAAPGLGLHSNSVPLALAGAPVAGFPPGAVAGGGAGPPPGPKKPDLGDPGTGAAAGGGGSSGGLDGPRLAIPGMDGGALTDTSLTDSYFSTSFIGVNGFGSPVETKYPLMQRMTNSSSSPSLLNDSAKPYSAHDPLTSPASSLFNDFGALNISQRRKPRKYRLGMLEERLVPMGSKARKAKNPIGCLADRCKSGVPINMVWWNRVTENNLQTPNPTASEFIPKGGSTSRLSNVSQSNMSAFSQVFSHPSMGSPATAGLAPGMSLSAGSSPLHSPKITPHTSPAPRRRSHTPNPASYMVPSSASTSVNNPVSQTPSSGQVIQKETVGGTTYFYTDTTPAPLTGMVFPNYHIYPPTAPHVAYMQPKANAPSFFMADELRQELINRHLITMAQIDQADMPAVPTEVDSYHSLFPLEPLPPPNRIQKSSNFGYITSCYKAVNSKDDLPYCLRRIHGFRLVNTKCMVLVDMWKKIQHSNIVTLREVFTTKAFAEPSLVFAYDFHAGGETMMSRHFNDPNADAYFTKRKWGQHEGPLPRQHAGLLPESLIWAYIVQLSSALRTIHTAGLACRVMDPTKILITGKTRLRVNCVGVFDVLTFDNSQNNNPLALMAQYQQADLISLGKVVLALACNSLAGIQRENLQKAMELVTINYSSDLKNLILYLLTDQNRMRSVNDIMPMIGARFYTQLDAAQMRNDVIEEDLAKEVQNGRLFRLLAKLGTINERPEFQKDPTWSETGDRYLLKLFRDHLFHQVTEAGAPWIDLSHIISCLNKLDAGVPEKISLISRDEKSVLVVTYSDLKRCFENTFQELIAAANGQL
UniProt O75781: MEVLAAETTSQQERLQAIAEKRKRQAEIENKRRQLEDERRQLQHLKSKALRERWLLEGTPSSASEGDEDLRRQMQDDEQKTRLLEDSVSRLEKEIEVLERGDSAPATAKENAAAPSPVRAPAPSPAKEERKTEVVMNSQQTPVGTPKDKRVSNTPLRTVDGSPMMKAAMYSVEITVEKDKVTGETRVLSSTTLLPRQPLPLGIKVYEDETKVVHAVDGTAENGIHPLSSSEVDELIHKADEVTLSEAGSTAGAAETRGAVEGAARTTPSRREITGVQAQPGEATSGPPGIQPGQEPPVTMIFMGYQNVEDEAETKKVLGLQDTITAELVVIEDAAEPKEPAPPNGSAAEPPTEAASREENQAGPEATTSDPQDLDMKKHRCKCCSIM
UniProt Q15154: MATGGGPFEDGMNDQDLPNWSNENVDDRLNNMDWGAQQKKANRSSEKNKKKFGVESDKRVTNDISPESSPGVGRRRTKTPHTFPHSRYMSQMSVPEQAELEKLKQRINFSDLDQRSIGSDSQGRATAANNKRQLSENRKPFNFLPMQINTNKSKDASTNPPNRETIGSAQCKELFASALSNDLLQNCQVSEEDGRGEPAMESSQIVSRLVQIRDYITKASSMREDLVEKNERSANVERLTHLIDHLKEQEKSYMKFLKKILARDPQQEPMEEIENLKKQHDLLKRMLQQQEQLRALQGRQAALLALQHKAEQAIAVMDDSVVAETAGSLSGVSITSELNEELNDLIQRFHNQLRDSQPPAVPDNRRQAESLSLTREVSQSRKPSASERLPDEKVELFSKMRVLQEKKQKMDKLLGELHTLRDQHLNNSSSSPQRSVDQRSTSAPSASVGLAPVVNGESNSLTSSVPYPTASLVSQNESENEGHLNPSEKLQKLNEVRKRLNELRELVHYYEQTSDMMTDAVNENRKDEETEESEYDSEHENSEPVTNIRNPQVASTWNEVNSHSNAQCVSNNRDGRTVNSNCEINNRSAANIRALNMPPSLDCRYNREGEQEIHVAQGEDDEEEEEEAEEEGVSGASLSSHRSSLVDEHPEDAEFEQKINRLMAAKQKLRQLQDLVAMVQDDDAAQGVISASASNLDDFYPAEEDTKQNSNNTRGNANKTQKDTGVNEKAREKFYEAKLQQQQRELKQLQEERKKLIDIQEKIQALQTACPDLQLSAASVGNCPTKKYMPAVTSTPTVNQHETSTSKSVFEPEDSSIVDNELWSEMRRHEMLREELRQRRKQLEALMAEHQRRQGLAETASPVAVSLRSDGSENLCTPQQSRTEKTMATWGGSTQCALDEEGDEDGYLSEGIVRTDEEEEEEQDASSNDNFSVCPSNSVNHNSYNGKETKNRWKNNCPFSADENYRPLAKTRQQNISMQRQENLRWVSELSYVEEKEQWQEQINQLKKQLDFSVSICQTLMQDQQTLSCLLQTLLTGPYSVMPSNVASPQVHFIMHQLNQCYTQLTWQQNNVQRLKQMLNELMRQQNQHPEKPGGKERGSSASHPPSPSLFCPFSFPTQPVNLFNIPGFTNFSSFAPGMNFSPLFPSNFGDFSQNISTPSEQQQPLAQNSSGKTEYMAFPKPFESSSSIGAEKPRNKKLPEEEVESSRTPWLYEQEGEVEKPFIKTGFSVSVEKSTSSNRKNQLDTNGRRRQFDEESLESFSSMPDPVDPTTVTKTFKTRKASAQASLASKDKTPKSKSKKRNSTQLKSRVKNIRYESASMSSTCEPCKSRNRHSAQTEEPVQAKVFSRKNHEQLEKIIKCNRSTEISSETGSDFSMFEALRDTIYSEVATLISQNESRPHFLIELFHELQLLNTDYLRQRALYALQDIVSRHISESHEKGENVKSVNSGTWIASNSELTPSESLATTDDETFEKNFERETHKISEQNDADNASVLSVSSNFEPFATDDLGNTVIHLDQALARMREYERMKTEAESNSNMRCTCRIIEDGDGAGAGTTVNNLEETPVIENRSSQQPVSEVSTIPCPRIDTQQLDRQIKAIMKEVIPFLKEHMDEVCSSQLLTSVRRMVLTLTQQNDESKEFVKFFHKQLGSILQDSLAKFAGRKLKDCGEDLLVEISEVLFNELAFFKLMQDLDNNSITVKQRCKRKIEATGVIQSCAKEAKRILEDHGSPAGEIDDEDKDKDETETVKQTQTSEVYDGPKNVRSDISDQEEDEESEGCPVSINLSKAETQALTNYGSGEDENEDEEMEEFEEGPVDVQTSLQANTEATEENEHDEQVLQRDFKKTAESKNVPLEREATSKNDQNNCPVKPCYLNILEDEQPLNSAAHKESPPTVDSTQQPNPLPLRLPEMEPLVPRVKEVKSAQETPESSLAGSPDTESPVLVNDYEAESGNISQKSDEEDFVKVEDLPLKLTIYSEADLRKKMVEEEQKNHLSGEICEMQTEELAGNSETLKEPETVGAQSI

Legend:
Assay in all cases: log2 fold change, soluble protein after heating vs DMSO (PISA); higher = thermal stabilisation; K562 cells, 10 uM, 30 min; active = over 0.2 and 3.5 SD of the protein, either way, in both replicates (recomputed)
saracatinib = compound: CN1CCN(CCOc2cc(OC3CCOCC3)c3c(Nc4c(Cl)ccc5c4OCO5)ncnc3c2)CC1 [saracatinib]
Summary of the method: (§1)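 Values are thermal stability changes relative to control samples and are taken from duplicates. They are stated as log2 fold changes. Before quantification by TMTpro 16plex LC-MS/MS with equalised channel sums, K562 cells at 2×10^6 cells/mL were treated with 10 μM compound for 30 min, heated in aliquots for 3 min across 48°C-58°C, pooled, extracted in PBS with 0.5% NP-40 at 4°C, and centrifuged at 21,000xg for 90 min to give the soluble supernatant.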

alvocidib = compound: CN1CC[C@H](c2c(O)cc(O)c3c(=O)cc(-c4ccccc4Cl)oc23)[C@H](O)C1 [alvocidib]
Summary of the method: as §1

[1] = compound: CNc1nc(-c2ccc3c(N)n[nH]c3c2)cc(N2C[C@@H](C(=O)NC3CCCCC3)CC[C@H]2C)n1
Summary of the method: as §1

zotarolimus = compound: CO[C@H]1C[C@@H]2CC[C@@H](C)[C@@](O)(O2)C(=O)C(=O)N2CCCC[C@H]2C(=O)O[C@H]([C@H](C)C[C@@H]2CC[C@H](n3cnnn3)[C@H](OC)C2)CC(=O)[C@H](C)/C=C(\C)[C@@H](O)[C@@H](OC)C(=O)[C@H](C)C[C@H](C)/C=C/C=C/C=C/1C [zotarolimus]
Summary of the method: as §1

alisertib = compound: COc1cc(Nc2ncc3c(n2)-c2ccc(Cl)cc2C(c2c(F)cccc2OC)=NC3)ccc1C(=O)O [alisertib]
Summary of the method: as §1

[2] = compound: COc1cccc2cc(-c3nc([C@H]4CC[C@H](C(=O)O)CC4)n4ncnc(N)c34)[nH]c12
Summary of the method: as §1

pictilisib = compound: CS(=O)(=O)N1CCN(Cc2cc3nc(-c4cccc5[nH]ncc45)nc(N4CCOCC4)c3s2)CC1 [pictilisib]
Summary of the method: as §1

sotrastaurin = compound: CN1CCN(c2nc(C3=C(c4c[nH]c5ccccc45)C(=O)NC3=O)c3ccccc3n2)CC1 [sotrastaurin]
Summary of the method: as §1

Tubastatin A = compound: CN1CCc2c(c3ccccc3n2Cc2ccc(C(=O)NO)cc2)C1 [Tubastatin A]
Summary of the method: as §1

[3] = compound: CNC(=O)C1=CC=CC=C1NC2=NC(=NC=C2Cl)NC3=C(C=C(C=C3)N4CCOCC4)OC
Summary of the method: as §1

defactinib = compound: CNC(=O)c1ccc(Nc2ncc(C(F)(F)F)c(NCc3nccnc3N(C)S(C)(=O)=O)n2)cc1 [defactinib]
Summary of the method: as §1

rucaparib = compound: CNCc1ccc(-c2[nH]c3cc(F)cc4c3c2CCNC4=O)cc1 [rucaparib]
Summary of the method: as §1

encorafenib = compound: COC(=O)N[C@@H](C)CNc1nccc(-c2cn(C(C)C)nc2-c2cc(Cl)cc(NS(C)(=O)=O)c2F)n1 [encorafenib]
Summary of the method: as §1

[4] = compound: COC(=O)[C@H](CCSC)NC(=O)C1=C(C=C(C=C1)NC[C@H](CS)N)C2=CC=CC=C2
Summary of the method: as §1

filanesib = compound: CON(C)C(=O)N1N=C(c2cc(F)ccc2F)S[C@@]1(CCCN)c1ccccc1 [filanesib]
Summary of the method: as §1

idasanutlin = compound: COc1cc(C(=O)O)ccc1NC(=O)[C@@H]1N[C@@H](CC(C)(C)C)[C@](C#N)(c2ccc(Cl)cc2F)[C@H]1c1cccc(Cl)c1F [idasanutlin]
Summary of the method: as §1

gefitinib = compound: COc1cc2ncnc(Nc3ccc(F)c(Cl)c3)c2cc1OCCCN1CCOCC1 [gefitinib]
Summary of the method: as §1

[5] = compound: COc1cc2nc(-c3cc(F)ccc3O)nc(N[C@@H]3CNC[C@H]3C(C)(C)O)c2cc1OC
Summary of the method: as §1

lapatinib = compound: CS(=O)(=O)CCNCc1ccc(-c2ccc3ncnc(Nc4ccc(OCc5cccc(F)c5)c(Cl)c4)c3c2)o1 [lapatinib]
Summary of the method: as §1

[6] = compound: COC1=CC=C(C=C1)CN2C=CC3=C2C=C(C=C3)C(=O)NO
Summary of the method: as §1

## PAF1 (UniProt Q8N7H5)
saracatinib
  log2 fold change: inactive: 0.234
alvocidib
  log2 fold change: inactive: -0.249
[1]
  log2 fold change: inactive: -0.076
zotarolimus
  log2 fold change: inactive: -0.096
alisertib
  log2 fold change: inactive: -0.034
[2]
  log2 fold change: inactive: 0.026
pictilisib
  log2 fold change: inactive: -0.326

## PAGE4 (UniProt O60829)
sotrastaurin
  log2 fold change: inactive: -0.148
alvocidib
  log2 fold change: inactive: 0.185
Tubastatin A
  log2 fold change: inactive: -0.023
[3]
  log2 fold change: inactive: -0.018
defactinib
  log2 fold change: inactive: 0.004
rucaparib
  log2 fold change: inactive: 0.116
encorafenib
  log2 fold change: inactive: -0.024
[4]
  log2 fold change: inactive: -0.069
filanesib
  log2 fold change: inactive: -0.05
zotarolimus
  log2 fold change: inactive: -0.103
idasanutlin
  log2 fold change: inactive: -0.082
alisertib
  log2 fold change: inactive: 0.001
gefitinib
  log2 fold change: inactive: 0.029
[2]
  log2 fold change: inactive: 0.036
pictilisib
  log2 fold change: inactive: 0.174

## PCNX3 (UniProt Q9H6A9)
[3]
  log2 fold change: inactive: 0.075
[5]
  log2 fold change: inactive: 0.176
lapatinib
  log2 fold change: inactive: -0.133

## PDXP (UniProt B1AHD3)
alvocidib
  log2 fold change: inactive: -0.19
defactinib
  log2 fold change: inactive: 0.075
[4]
  log2 fold change: inactive: 0.073
zotarolimus
  log2 fold change: inactive: 0.185

## PDE4A (UniProt P27815)
Tubastatin A
  log2 fold change: inactive: 0.054
[3]
  log2 fold change: inactive: 0.017
defactinib
  log2 fold change: inactive: -0.145
[4]
  log2 fold change: inactive: -0.018
[6]
  log2 fold change: inactive: -0.442
zotarolimus
  log2 fold change: inactive: 0.07
idasanutlin
  log2 fold change: inactive: 0.098
[5]
  log2 fold change: inactive: 0.112
lapatinib
  log2 fold change: inactive: -0.016

## PCBP2 (UniProt F8VZX2)
saracatinib
  log2 fold change: inactive: 0.009
[3]
  log2 fold change: inactive: 0.06
[1]
  log2 fold change: inactive: 0.084
[6]
  log2 fold change: inactive: 0.03
zotarolimus
  log2 fold change: inactive: 0.158
alisertib
  log2 fold change: inactive: -0.04
gefitinib
  log2 fold change: inactive: -0.111
[2]
  log2 fold change: inactive: -0.018

## PACRGL (UniProt Q8N7B6)
sotrastaurin
  log2 fold change: inactive: -0.075
filanesib
  log2 fold change: inactive: 0.056

## PCSK7 (UniProt Q16549)
[3]
  log2 fold change: inactive: -0.05
[5]
  log2 fold change: inactive: -0.145
lapatinib
  log2 fold change: inactive: 0.046

## PAN3 (UniProt Q58A45)
pictilisib
  log2 fold change: inactive: 0.175

## PAFAH1B1 (UniProt I3L3N5)
saracatinib
  log2 fold change: inactive: -0.068
alvocidib
  log2 fold change: inactive: 0.159
defactinib
  log2 fold change: inactive: 0.05
[1]
  log2 fold change: inactive: -0.024
[4]
  log2 fold change: inactive: 0.054
[6]
  log2 fold change: inactive: -0.219
zotarolimus
  log2 fold change: inactive: -0.147
idasanutlin
  log2 fold change: inactive: -0.122
alisertib
  log2 fold change: inactive: 0.088
[5]
  log2 fold change: inactive: 0.202
[2]
  log2 fold change: inactive: 0.009
lapatinib
  log2 fold change: inactive: -0.183

## PALM (UniProt O75781)
[3]
  log2 fold change: inactive: -0.088
defactinib
  log2 fold change: inactive: -0.111
[4]
  log2 fold change: inactive: 0.067
[6]
  log2 fold change: inactive: -0.112
alisertib
  log2 fold change: inactive: -0.06
[2]
  log2 fold change: inactive: -0.177

## PDIA4, A0A499FI48
saracatinib
  log2 fold change: inactive: -0.047
Tubastatin A
  log2 fold change: inactive: -0.064
defactinib
  log2 fold change: inactive: -0.014
rucaparib
  log2 fold change: inactive: -0.162
[1]
  log2 fold change: inactive: -0.008
encorafenib
  log2 fold change: inactive: 0.056
[4]
  log2 fold change: inactive: 0.085
[6]
  log2 fold change: inactive: -0.047
idasanutlin
  log2 fold change: inactive: 0.217
alisertib
  log2 fold change: inactive: 0.084
[5]
  log2 fold change: inactive: -0.102
[2]
  log2 fold change: inactive: -0.233
lapatinib
  log2 fold change: inactive: 0.059
pictilisib
  log2 fold change: inactive: -0.068

## PAN2 (UniProt Q504Q3)
saracatinib
  log2 fold change: inactive: 0.113
defactinib
  log2 fold change: inactive: 0.001
rucaparib
  log2 fold change: active: -0.656
[1]
  log2 fold change: inactive: -0.048
encorafenib
  log2 fold change: inactive: 0.073
[4]
  log2 fold change: inactive: -0.045
gefitinib
  log2 fold change: inactive: 0.013

## PDE4DIP (UniProt E9PS60)
[3]
  log2 fold change: inactive: -0.196
defactinib
  log2 fold change: inactive: 0.095
rucaparib
  log2 fold change: inactive: 0.172
encorafenib
  log2 fold change: inactive: 0.125
[4]
  log2 fold change: inactive: 0.032
[6]
  log2 fold change: inactive: 0
zotarolimus
  log2 fold change: inactive: -0.032

## PCM1 isoform 2 (UniProt Q15154)
saracatinib
  log2 fold change: inactive: -0.185
sotrastaurin
  log2 fold change: inactive: 0.034
[1]
  log2 fold change: inactive: -0.031
filanesib
  log2 fold change: inactive: 0.163
alisertib
  log2 fold change: inactive: 0.117
[2]
  log2 fold change: inactive: 0.136
pictilisib
  log2 fold change: inactive: 0.007

## PCYT2 (UniProt I3L1F9)
[5]
  log2 fold change: inactive: 0.125
lapatinib
  log2 fold change: inactive: -0.046
